Results deposited as PubChem BioAssay AID1259308 (NCATS, 2017).

- Aim: 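Knock-downs that increase output of a recombinant reporter protein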 (primary screen)
- System: human HEK293 embryonic kidney cells stably expressing firefly luciferase (HEK-CMV-Luc2-Hygro)
- Reagent: single siRNA against human genes, 0.8 pmol siRNA per well
- Timing: 72 h
- Measured: 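Reporter luminescence and viable-cell signal on separate replicate plates, given as percent of non-targeting control and median/MAD z-scores, plus per-cell luciferase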
- Direction: total luciferase, z-score: higher = more reporter protein produced
- Active means: 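Active when the median/MAD z-score for overall luciferase is greater than 3; a gene was taken forward for validation with new siRNAs if at least two of its three siRNAs passed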
- Meaning of the calls: active = raised luciferase; inactive = no rise
Here is one part, drawn at random, of about 59,000 deposited reagents. In the full data, about 1,510 (2.6%) are marked active. 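Calls use total luciferase alone and ignore viability, so some active siRNAs may act by altering cell number.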 Unmarked entries are inactive. The numbers tell different reagents against one gene apart. Not all columns of the deposit are shown.

total luciferase, z-score, by gene knocked down and reagent
PHGR1 (proline, histidine and glycine rich 1): #1 -0.725; #2 0.813; #3 0.733
CTSZ (cathepsin Z): #1 1.08; #2 -0.0693; #3 0.444
TGIF1 (TGFB induced factor homeobox 1): #1 2.53; #2 -1.17; #3 1
ASIC5 (acid sensing ion channel subunit family member 5): #1 4.12 (active); #2 -1.09; #3 0.685

Copied from the list.
Under “total luciferase, z-score”, ASIC5 (acid sensing ion channel subunit family member 5) #1 is entered as 4.12 (active)
TGIF1 (TGFB induced factor homeobox 1) #1, total luciferase, z-score = 2.53
For “total luciferase, z-score”, TGIF1 (TGFB induced factor homeobox 1) #3 reads 1

Additional results:
total luciferase, z-score, by gene knocked down and reagent
SLC5A4: #1 0.259; #2 0.388; #3 4.1 (active)
SYNRG (synergin gamma): #1 -1.02; #2 2.67; #3 -0.166
GUF1 (GTP binding elongation factor GUF1): #1 -0.514; #2 0.702; #3 -0.476
NDUFA6 (NADH:ubiquinone oxidoreductase subunit A6): #1 -0.243; #2 1.55; #3 -0.558
